Counter-ions that a name gives are not always drawn. At least one structure is not confirmed: it was looked up by name or label, or the drawing left a doubt.
Assay: Hygroscopicity of the isolated solid salt (observation at preparation)
Assay type: physicochemical
Settings: solid obtained after concentration under vacuum, taking up with acetone and filtration

CC(=O)OC(CC(=O)O)C[N+](C)(C)C [ST 1304, Acetyl-L-carnitine Magnesium Citrate]
hygroscopicity of the solid product: non-hygroscopic
